The experiment relates to L1210 leukemia ip in BDF1 mice, survival T/C. In words: NCI In Vivo Anticancer Drug Screen. Data for tumor model L1210 Leukemia (intraperitoneal) in B6D2F1 (BDF1) mice. Conditions: higher T/C = longer survival.
[1] abbreviates: T/C endpoint: mean survival time, dose: 100.0 mg/kg/injection, schedule: Q01DX009 (ip), vehicle: saline.
The mark [2] stands for this setting: T/C endpoint: mean survival time, dose: 100.0 mg/kg/injection, schedule: Q04DX003 (ip), vehicle: saline.
The mark [3] stands for this setting: T/C endpoint: mean survival time, dose: 200.0 mg/kg/injection, schedule: Q01DX009 (ip), vehicle: saline.
The mark [4] stands for this setting: T/C endpoint: mean survival time, dose: 200.0 mg/kg/injection, schedule: Q04DX003 (ip), vehicle: saline.
Setting [5] is: T/C endpoint: mean survival time, dose: 400.0 mg/kg/injection, schedule: Q01DX009 (ip), vehicle: saline.
[6] abbreviates: T/C endpoint: mean survival time, dose: 400.0 mg/kg/injection, schedule: Q04DX003 (ip), vehicle: saline.
Setting [7] is: T/C endpoint: mean survival time, dose: 100.0 mg/kg/injection, schedule: Q01DX001 (ip), vehicle: saline.
The mark [8] stands for this setting: T/C endpoint: mean survival time, dose: 200.0 mg/kg/injection, schedule: Q01DX001 (ip), vehicle: saline.
The mark [9] stands for this setting: T/C endpoint: mean survival time, dose: 400.0 mg/kg/injection, schedule: Q01DX001 (ip), vehicle: saline.
[10] abbreviates: T/C endpoint: mean survival time, dose: 75.0 mg/kg/injection, schedule: Q01DX001 (ip), vehicle: saline.

The list is a part of this screen's results and no random one: it covers a few groups of compounds. Not every dose and run of a compound is shown. T/C gives the treated animals as a percentage of the vehicle group. Some entries give survivors of the animals treated and no T/C: the source files T/C as zero there, which appears to mark a toxic dose or a test without result, not a measured value. Some survivor counts are full or nearly so, which does not show that the dose was tolerated: the source hardly ever lists a survival T/C far under the control, and the zero likely stands for such cases as well. Survivors were counted at the toxicity check, usually on the fifth day, unless a day is given; later deaths do not show. Schedules are NCI's codes, taken here to give the interval after Q, in days (D) or hours (H), and the number of doses after X. Some schedules carry Z or #; the key to these is not given. For survival time, this PubChem deposit counts one and a half times the control or more as active, and values a quarter to a half above the control carry no call in these data; other NCI protocols may use other cut-offs. Some doses were run more than once; their values stand side by side, smallest first. Signs of the kind (2×) stand for listed records that agree. Some entries show no survivor count and are marked so; the dose need not have been tolerated. Some T/C values carry the count of animals alive at the toxicity check (mostly the fifth day); where neither a count nor a note follows, no animal had died by that day.

`CCOP(N)(=O)OCC`: the T/C was 96 % of control under setting [1]; 100 % of control under setting [2]; 94 % of control under setting [3]; 100 % of control under setting [4]; 91 % of control under setting [5]; 110 % of control under setting [6].
Take `COC(=O)c1ccccc1C[N+](C)(CCCl)CCCl`: the T/C is 103 % of control (T/C endpoint: mean survival time, dose: 2.9 mg/kg/injection, schedule: Q01DX009 (ip), vehicle: saline); 105 % of control (T/C endpoint: mean survival time, dose: 3.0 mg/kg/injection, schedule: Q01DX009 (ip), vehicle: saline); 120 % of control (T/C endpoint: mean survival time, dose: 4.35 mg/kg/injection, schedule: Q01DX009 (ip), vehicle: saline); 99 % of control (T/C endpoint: mean survival time, dose: 4.4 mg/kg/injection, schedule: Q01DX009 (ip), vehicle: saline); 114 % of control (T/C endpoint: mean survival time, dose: 5.0 mg/kg/injection, schedule: Q01DX001 (ip), vehicle: carboxymethylcellulose (CMC)); 107 (2×) and 142 % of control (T/C endpoint: mean survival time, dose: 6.6 mg/kg/injection, schedule: Q01DX009 (ip), vehicle: saline). In addition, the T/C by setting is: (T/C endpoint: mean survival time, dose: 6.6 mg/kg/injection, schedule: Q04DX003 (ip), vehicle: saline) 122 and 123 % of control; (T/C endpoint: mean survival time, dose: 10.0 mg/kg/injection, schedule: Q01DX001 (ip), vehicle: carboxymethylcellulose (CMC)) 114 % of control; (T/C endpoint: mean survival time, dose: 10.0 mg/kg/injection, schedule: Q01DX009 (ip), vehicle: saline) 112, 118, 152 % of control; (T/C endpoint: mean survival time, dose: 10.0 mg/kg/injection, schedule: Q04DX003 (ip), vehicle: saline) 104, 111, 126 % of control; (T/C endpoint: mean survival time, dose: 15.0 mg/kg/injection, schedule: Q01DX009 (ip), vehicle: saline) 109 % of control; (T/C endpoint: mean survival time, dose: 15.0 mg/kg/injection, schedule: Q04DX003 (ip), vehicle: saline) 103 and 118 % of control. Also, the T/C (T/C endpoint: mean survival time, dose: 20.0 mg/kg/injection, schedule: Q04DX003 (ip), vehicle: saline) was 121 % of control.
Regarding `CSc1ncc(COP(=S)(Cl)Cl)c(N)n1`, the T/C is, setting by setting: (T/C endpoint: mean survival time, dose: 25.0 mg/kg/injection, schedule: Q01DX001 (ip), vehicle: saline with Tween-80) 102 % of control; (T/C endpoint: mean survival time, dose: 50.0 mg/kg/injection, schedule: Q01DX001 (ip), vehicle: saline with Tween-80) 100 % of control; (T/C endpoint: mean survival time, dose: 100.0 mg/kg/injection, schedule: Q01DX001 (ip), vehicle: saline with Tween-80) 95 % of control.
As for `CC1C[P+](c2ccccc2)(c2ccccc2)Cc2ccccc21.F[P-](F)(F)(F)(F)F` (stereo not given), the survivor count is 3 of 3 (T/C endpoint: mean survival time, dose: 25.0 mg/kg/injection, schedule: Q04DX003 (ip), vehicle: saline with Tween-80); 0 of 3 (T/C endpoint: mean survival time, dose: 50.0 mg/kg/injection, schedule: Q04DX003 (ip), vehicle: saline with Tween-80); 0 of 3 (T/C endpoint: mean survival time, dose: 100.0 mg/kg/injection, schedule: Q04DX003 (ip), vehicle: saline with Tween-80).
On to `COc1ccc(C(=O)OCCNCCCl)cc1`, for which the T/C was 110 % of control (T/C endpoint: median survival time, dose: 100.0 mg/kg/injection, schedule: Q01DX009 (ip), vehicle: saline); 104 % of control (T/C endpoint: median survival time, dose: 200.0 mg/kg/injection, schedule: Q01DX009 (ip), vehicle: saline); 110 % of control (T/C endpoint: median survival time, dose: 400.0 mg/kg/injection, schedule: Q01DX009 (ip), vehicle: saline).
Turning to `CCOP1OC(C)(C)C(C)(C)O1`, the T/C is 102 % of control under setting [7], 93 % of control under setting [8] and 96 % of control under setting [9].
As for `NNC(=O)NP(=O)(NC(=O)NN)NC(=O)NN`, the T/C is 97 % of control (T/C endpoint: mean survival time, dose: 50.0 mg/kg/injection, schedule: Q01DX001 (ip), vehicle: saline); 92 % of control under setting [7]; 97 % of control under setting [8]; 100 % of control under setting [9].
Consider `CC(C)N(C)CCCl`, for which the T/C (T/C endpoint: mean survival time, dose: 6.25 mg/kg/injection, schedule: Q01DX009 (ip), vehicle: saline) was 100 % of control [survivor count not shown]; the T/C (T/C endpoint: mean survival time, dose: 12.5 mg/kg/injection, schedule: Q01DX009 (ip), vehicle: saline) is 96 % of control [survivor count not shown]; the T/C (T/C endpoint: mean survival time, dose: 25.0 mg/kg/injection, schedule: Q01DX009 (ip), vehicle: saline) was 102 [survivor count not shown] and 110 % of control [survivor count not shown]; the T/C (T/C endpoint: mean survival time, dose: 50.0 mg/kg/injection, schedule: Q01DX009 (ip), vehicle: saline) is 97 % of control [survivor count not shown].
With `CCN(CC)CCOC(=O)C(O)(c1ccccc1)c1cccc(C)c1` (stereo not given), the T/C under setting [10] is 109 % of control.
As to `O=P(Nc1ncccn1)(N1CC1)N1CC1`, the T/C reads like this: (T/C endpoint: mean survival time, dose: 1.3 mg/kg/injection, schedule: Q01DX Z (ip), vehicle: saline) 109 % of control; (T/C endpoint: mean survival time, dose: 2.0 mg/kg/injection, schedule: Q01DX Z (ip), vehicle: saline) 108 % of control; (T/C endpoint: mean survival time, dose: 3.0 mg/kg/injection, schedule: Q01DX Z (ip), vehicle: saline) 123 % of control; (T/C endpoint: mean survival time, dose: 5.0 mg/kg/injection, schedule: Q01DX Z (ip), vehicle: saline) 161 % of control; (T/C endpoint: mean survival time, dose: 7.0 mg/kg/injection, schedule: Q01DX Z (ip), vehicle: saline) 179 and 190 % of control; (T/C endpoint: mean survival time, dose: 10.0 mg/kg/injection, schedule: Q01DX Z (ip), vehicle: saline) 169 and 223 % of control. Besides, the T/C (T/C endpoint: mean survival time, dose: 15.0 mg/kg/injection, schedule: Q01DX Z (ip), vehicle: saline) was 157, 180, 183 % of control; the T/C (T/C endpoint: mean survival time, dose: 23.0 mg/kg/injection, schedule: Q01DX Z (ip), vehicle: saline) was 94, 134, 156 % of control; the T/C (T/C endpoint: mean survival time, dose: 35.0 mg/kg/injection, schedule: Q01DX001 (ip), vehicle: saline) was 136 % of control; the T/C (T/C endpoint: mean survival time, dose: 35.0 mg/kg/injection, schedule: Q01DX Z (ip), vehicle: saline) was 109 % of control; the T/C (T/C endpoint: mean survival time, dose: 53.0 mg/kg/injection, schedule: Q01DX001 (ip), vehicle: saline) was 214 % of control; the T/C (T/C endpoint: mean survival time, dose: 80.0 mg/kg/injection, schedule: Q01DX001 (ip), vehicle: saline) is 202 % of control [5 of 6 alive]. The survivor count (T/C endpoint: mean survival time, dose: 52.0 mg/kg/injection, schedule: Q01DX Z (ip), vehicle: saline) is on record as 4 of 6; the survivor count under setting [7] is on record as 0 of 6; the survivor count (T/C endpoint: mean survival time, dose: 120.0 mg/kg/injection, schedule: Q01DX001 (ip), vehicle: saline) was 2 of 6; the survivor count under setting [8] is reported as 1 of 6; the survivor count under setting [9] is recorded as 4 of 6.
Turning to `CCCCCCCCP(=O)(Cl)CC` (stereo not given), the T/C under setting [10] was 93 % of control and the T/C (T/C endpoint: mean survival time, dose: 150.0 mg/kg/injection, schedule: Q01DX001 (ip), vehicle: saline) was 91 % of control. Also, under “T/C endpoint: mean survival time, dose: 300.0 mg/kg/injection, schedule: Q01DX001 (ip), vehicle: saline”, the survivor count is 0 of 6.
For the compound `CCOP(=O)(NC(=S)NN1CCOCC1)OCC`, the T/C under setting [7] was 98 % of control; the T/C under setting [1] was 100 and 108 % of control; the T/C (T/C endpoint: mean survival time, dose: 100.0 mg/kg/injection, schedule: Q04DX002 (ip), vehicle: saline) was 105 % of control; the T/C under setting [2] was 96 % of control; the T/C under setting [8] was 92 % of control; the T/C under setting [3] was 97 and 100 % of control. In addition, the T/C by setting is: (T/C endpoint: mean survival time, dose: 200.0 mg/kg/injection, schedule: Q04DX002 (ip), vehicle: saline) 94 % of control; under setting [4], 102 % of control; under setting [9], 92 % of control; under setting [5], 91 and 94 % of control; (T/C endpoint: mean survival time, dose: 400.0 mg/kg/injection, schedule: Q04DX002 (ip), vehicle: saline) 102 % of control; under setting [6], 98 % of control.
Consider `C1CCC2(CC1)C[N+]21CCCC1`, for which the T/C runs as follows: (T/C endpoint: mean survival time, dose: 50.0 mg/kg/injection, schedule: Q04DX003 (ip), vehicle: saline) 97 and 102 % of control; under setting [2], 97 and 101 % of control; under setting [4], 105 and 114 % of control.

The values above are taken from PubChem BioAssay AID248 (DTP/NCI, 2004).
